# Measurements taken from PubChem BioAssay AID853 (Columbia University Molecular Screening Center, 2007).
# Some of the results follow. Some of these compounds have results that are not shown, active ones among them.
# Assay: removal of polyQ htt aggregates in HeLa – imaging, HeLa Exon1htt(103Q)mCFP, confocal imaging, primary screen (AID 853);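 further: cells exposed to compound for three days before fixation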
# Details: aggregate imaging, measured here: aggregate grain fluorescence fraction, at 1.5 µM, stronger effect = lower value
row,Compound,fraction fluorescence in grains
1,CN(C)c1cccc(C(=O)NCC2(N(C)C)CCCCC2)c1,34.6
